Measurements from PMC7876134.

Chains of the proteins cited; added tags and fusions are not shown.
UniProt P21333: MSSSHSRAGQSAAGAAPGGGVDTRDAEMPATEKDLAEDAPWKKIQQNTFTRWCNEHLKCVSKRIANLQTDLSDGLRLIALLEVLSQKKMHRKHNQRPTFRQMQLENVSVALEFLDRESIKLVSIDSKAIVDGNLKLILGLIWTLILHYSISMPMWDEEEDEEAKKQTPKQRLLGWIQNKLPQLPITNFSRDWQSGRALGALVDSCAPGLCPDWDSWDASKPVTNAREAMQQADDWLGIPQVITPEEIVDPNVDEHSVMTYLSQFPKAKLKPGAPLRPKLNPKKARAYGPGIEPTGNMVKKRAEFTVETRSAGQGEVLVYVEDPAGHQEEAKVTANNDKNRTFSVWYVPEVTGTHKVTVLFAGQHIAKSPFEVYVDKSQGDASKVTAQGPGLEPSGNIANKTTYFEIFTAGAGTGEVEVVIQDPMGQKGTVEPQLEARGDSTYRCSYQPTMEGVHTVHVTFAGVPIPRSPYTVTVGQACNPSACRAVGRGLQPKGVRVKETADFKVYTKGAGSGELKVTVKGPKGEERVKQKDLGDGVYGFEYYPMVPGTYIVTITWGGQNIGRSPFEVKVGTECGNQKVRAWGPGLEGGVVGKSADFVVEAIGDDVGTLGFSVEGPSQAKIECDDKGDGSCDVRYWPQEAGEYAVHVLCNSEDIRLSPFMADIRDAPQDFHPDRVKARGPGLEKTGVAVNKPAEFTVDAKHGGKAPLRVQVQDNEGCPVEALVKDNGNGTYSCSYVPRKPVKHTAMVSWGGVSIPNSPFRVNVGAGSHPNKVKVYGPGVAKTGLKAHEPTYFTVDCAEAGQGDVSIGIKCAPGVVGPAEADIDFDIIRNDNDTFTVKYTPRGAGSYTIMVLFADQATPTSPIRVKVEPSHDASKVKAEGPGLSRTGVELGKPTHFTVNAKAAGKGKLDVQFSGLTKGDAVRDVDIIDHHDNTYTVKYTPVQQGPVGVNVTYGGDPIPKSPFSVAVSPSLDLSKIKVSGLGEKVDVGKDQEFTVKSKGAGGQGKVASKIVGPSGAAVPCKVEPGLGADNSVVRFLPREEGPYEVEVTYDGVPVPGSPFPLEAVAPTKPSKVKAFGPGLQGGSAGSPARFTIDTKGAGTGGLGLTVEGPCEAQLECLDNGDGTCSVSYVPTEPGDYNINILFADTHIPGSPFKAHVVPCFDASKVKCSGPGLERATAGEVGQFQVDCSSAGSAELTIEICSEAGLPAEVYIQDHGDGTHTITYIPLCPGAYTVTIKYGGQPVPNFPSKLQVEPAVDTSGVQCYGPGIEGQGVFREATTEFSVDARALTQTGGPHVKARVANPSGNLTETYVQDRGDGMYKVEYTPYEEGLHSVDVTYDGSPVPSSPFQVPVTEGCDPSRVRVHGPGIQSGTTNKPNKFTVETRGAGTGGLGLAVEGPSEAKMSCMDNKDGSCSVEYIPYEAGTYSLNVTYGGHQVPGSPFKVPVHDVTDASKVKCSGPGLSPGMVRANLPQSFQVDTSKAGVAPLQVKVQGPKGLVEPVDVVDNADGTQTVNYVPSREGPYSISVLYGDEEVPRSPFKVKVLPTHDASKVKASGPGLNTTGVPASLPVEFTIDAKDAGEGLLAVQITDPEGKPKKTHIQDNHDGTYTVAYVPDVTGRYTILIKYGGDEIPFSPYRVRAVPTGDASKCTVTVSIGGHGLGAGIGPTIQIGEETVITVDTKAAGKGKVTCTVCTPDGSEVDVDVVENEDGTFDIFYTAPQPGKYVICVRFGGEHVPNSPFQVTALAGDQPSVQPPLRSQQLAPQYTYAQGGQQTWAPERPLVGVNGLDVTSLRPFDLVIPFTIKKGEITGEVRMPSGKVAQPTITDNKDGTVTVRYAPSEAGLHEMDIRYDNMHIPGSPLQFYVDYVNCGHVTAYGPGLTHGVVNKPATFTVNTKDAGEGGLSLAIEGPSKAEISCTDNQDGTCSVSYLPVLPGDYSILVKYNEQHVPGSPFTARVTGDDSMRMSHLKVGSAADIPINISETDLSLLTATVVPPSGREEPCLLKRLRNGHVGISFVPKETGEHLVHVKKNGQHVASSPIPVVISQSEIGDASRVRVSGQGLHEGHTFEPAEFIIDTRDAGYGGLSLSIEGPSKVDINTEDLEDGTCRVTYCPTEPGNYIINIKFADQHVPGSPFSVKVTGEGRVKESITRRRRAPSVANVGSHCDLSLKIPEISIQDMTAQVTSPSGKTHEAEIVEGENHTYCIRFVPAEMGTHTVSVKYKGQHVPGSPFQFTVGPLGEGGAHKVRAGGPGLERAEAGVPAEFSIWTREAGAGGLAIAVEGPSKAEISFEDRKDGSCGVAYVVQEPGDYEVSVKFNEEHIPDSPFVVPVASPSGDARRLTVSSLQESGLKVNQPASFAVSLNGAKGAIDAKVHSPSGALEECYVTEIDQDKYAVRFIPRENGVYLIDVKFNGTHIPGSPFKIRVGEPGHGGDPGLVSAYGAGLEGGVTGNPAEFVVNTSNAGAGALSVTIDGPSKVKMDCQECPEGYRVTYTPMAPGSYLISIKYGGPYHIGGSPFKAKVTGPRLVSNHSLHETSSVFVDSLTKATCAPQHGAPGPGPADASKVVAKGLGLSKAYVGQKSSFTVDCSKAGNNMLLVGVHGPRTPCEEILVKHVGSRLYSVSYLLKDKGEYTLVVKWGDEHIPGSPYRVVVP
UniProt P30613: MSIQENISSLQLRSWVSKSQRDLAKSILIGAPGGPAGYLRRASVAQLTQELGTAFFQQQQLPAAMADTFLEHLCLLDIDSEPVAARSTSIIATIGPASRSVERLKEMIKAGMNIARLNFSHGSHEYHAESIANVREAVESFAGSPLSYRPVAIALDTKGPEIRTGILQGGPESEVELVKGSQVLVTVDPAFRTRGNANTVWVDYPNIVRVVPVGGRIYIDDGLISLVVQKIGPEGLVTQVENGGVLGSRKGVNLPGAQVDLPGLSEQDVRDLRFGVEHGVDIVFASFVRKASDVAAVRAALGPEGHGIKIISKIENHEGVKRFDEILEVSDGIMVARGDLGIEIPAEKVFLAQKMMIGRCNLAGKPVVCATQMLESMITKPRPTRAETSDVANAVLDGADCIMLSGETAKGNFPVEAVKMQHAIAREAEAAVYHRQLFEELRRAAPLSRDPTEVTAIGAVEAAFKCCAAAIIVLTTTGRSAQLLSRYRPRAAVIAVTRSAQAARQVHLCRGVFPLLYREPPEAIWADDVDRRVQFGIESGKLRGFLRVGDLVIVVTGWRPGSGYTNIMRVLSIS
UniProt Q14258: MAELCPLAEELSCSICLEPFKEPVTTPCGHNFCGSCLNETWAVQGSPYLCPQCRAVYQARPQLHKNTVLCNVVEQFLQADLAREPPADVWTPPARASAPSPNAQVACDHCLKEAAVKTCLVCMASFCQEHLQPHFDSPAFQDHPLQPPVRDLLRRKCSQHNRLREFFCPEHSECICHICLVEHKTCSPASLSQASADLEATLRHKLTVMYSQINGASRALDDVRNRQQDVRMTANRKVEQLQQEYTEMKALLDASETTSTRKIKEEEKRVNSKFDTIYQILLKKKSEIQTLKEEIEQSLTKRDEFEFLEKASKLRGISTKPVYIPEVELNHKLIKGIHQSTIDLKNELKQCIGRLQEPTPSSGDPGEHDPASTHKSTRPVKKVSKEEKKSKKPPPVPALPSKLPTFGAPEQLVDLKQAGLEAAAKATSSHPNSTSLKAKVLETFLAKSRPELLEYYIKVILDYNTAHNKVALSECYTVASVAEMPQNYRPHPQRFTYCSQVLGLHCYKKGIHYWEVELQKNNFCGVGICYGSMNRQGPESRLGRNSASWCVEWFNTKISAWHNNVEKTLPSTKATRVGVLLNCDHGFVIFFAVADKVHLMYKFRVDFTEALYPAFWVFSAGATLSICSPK
UniProt P31946: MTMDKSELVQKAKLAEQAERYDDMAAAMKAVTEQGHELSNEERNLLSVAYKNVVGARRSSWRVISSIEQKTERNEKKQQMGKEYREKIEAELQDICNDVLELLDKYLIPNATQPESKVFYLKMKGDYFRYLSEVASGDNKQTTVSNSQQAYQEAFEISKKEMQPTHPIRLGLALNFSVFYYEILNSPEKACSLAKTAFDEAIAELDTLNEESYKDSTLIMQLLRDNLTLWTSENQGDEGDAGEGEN
UniProt P62258: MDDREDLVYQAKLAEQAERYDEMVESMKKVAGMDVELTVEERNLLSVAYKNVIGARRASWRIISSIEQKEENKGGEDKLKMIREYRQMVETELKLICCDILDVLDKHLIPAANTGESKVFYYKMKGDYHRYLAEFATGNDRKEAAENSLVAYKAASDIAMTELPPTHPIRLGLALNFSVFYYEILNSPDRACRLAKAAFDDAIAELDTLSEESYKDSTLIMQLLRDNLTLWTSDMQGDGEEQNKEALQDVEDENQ

T1: 3 × FLAG-labeled lanthionine synthetase C-like protein 2 (LANCL2) (UniProt Q9NS86)
T1 sequence: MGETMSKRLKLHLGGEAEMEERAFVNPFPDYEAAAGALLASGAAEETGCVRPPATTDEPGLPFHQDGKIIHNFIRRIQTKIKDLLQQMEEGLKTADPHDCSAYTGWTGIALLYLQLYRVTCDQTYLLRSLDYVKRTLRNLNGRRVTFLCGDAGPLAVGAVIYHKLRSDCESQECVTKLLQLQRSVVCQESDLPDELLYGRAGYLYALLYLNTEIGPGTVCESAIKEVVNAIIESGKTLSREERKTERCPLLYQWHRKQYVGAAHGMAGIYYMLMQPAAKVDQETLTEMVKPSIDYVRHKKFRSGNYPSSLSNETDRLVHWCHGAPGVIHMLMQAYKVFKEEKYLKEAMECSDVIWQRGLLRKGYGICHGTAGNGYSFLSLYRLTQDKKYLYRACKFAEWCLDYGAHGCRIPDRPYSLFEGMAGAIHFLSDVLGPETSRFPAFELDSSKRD


Target: T1, 3 × FLAG-labeled lanthionine synthetase C-like protein 2 (LANCL2)
Assay: affinity purification with mass spectrometry; 3xFLAG-LANCL2 captured from infected PC9 cells on anti-FLAG M2 beads; proteins resolved on 10% SDS-PAGE, Coomassie stained, trypsin digested, nano-LC-MS/MS (LTQ Velos-Orbitrap); negative control GV491 lentivirus

binding	Molecule
binds	Filamin A (FLNA) (from UniProt P21333 1-2647)
binds	PKLR (from UniProt P30613 1-574)
binds	TRIM25 (from UniProt Q14258 1-630)
binds	YWHAB (from UniProt P31946 1-246)
binds	YWHAE (from UniProt P62258 1-255)
binds	glutathione S-transferase Mu 3 (GSTM3) (protein, UniProt P21266 1-225) MSCESSMVLGYWDIRGLAHAIRLLLEFTDTSYEEKRYTCGEAPDYDRSQWLDVKFKLDLDFPNLPYLLDGKNKITQSNAILRYIARKHNMCGETEEEKIRVDIIENQVMDFRTQLIRLCYSSDHEKLKPQYLEELPGQLKQFSMFLGKFSWFAGEKLTFVDFLTYDILDQNRIFDPKCLDEFPNLKAFMCRFEALEKIAAYLQSDQFCKMPINNKMAQWGNKPVC

These are yes or no findings as the source states them, for the method shown. In cells and extracts the contact can be indirect. A yes stands for co-enrichment or nearness to the bait. Other partners may have been found. Where a sequence is shown, tags or fusion partners need not be part of it.
